{"source": "patent US8389565B2", "about": "“Glycosidase inhibitors and methods of synthesizing same” (Simon Fraser University, priority 2000, dated 2013)", "test_system": "Sprague-Dawley rats", "assay": "In vivo maltose gavage in catheterized rats: plasma glucose and insulin", "design": "species or system rat", "conditions": "maltose gavage 1000 mg/kg with 25 mg/kg drug", "experimental": "Five week old Sprague-Dawley rats were housed singly under a 12:12-h light-dark photoperiod and given free access to water and rat chow (Purina rodent chow). After one week of acclimation, chronic indwelling catheters were implanted.\nAnimals were anesthetized with a combination of Ketamine-Xylazine-Butorphanol (0.1 ml/100 g im). Analgesic (Butorphenol, 1 mg/kg sc) was administered following recovery from anesthesia and the following morning. Antibiotic was administered by one dose sc and in the drinking water for 4 days post-operative (Baytril, 5 mg/kg sc, Bayer, Toronto, Canada; Baytril, 50 mg/ml: 0.36 ml solution in 250 ml drinking water). A sterile catheter (Intramedic PE-50 with ˜3 cm beveled Silastic tip) was placed in the left carotid artery and the distal end of the catheter was tunneled subcutaneously, exteriorized, and anchored at the nape of the neck. The catheters were protected from chewing by a stainless steel tether connected to a swivel system which allowed free movement of the animal and easy access to the catheter by the investigator.\nThe animals were allowed to recover for 1 week. […]\nBlood samples were kept on ice in microcentrifuge tubes and then were centrifuged. […] Plasma insulin concentrations were measured by rat insulin ELISA (Crystal Chem INC, Downers Grove, Ill.). […]", "note": "At least one compound was matched to its structure with a doubt left."}
{"smiles": "C[C@H]1O[C@H](O[C@H]2[C@H](O)[C@@H](O)[C@@H](O[C@H]3[C@H](O)[C@@H](O)C(O)O[C@@H]3CO)O[C@@H]2CO)[C@H](O)[C@@H](O)[C@@H]1N[C@H]1C=C(CO)[C@@H](O)[C@H](O)[C@H]1O", "note": "(some centres unmarked) [Acarbose]", "values": [{"measurement": "plasma glucose profile (in words)", "result": "significantly lower post-prandial plasma glucose"}, {"measurement": "plasma insulin profile (in words)", "result": "significantly lower post-prandial plasma glucose and insulin concentrations"}]}
